# Structures were worked out from names or drawings and are uncertain.
# Sequences of proteins named here, by UniProt entry; tags and fusion partners are left off. Residues count along the entry.
# UniProt P43220, 24-463 limits assumed: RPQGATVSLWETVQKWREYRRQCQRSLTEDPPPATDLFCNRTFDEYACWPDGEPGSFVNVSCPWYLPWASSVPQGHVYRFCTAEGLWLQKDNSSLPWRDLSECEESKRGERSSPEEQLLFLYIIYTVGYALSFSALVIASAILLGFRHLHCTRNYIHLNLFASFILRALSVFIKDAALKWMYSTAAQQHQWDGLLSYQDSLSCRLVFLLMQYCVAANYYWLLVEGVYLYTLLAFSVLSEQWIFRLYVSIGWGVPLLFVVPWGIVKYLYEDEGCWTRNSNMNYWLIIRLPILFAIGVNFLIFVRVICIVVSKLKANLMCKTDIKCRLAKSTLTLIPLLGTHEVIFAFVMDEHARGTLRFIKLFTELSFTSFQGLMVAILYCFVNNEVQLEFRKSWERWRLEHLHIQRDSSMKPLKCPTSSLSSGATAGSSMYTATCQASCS
# Biological target: GLP-1 Receptor (Homo sapiens, UniProt P43220)
# Assay: GLP-1R agonist cAMP stimulation assay
# Details: read-out: Activity (EC50), GLP-1R agonist cAMP stimulation assay; HEK293/CRE-Luc cell line stably expressing the GLP-1 Receptor; 30 min at 37° C.; cAMP dynamic 2 Kit
# Description: Activation of GLP-1 receptor is known to stimulate cyclic AMP (cAMP) production in cells which indicates primary coupling to the Gas subunit of the G protein heterotrimeric complex.
# To optimize functional activity directed toward Gas coupling, a HEK293/CRE-Luc cell line developed by HDB stably expressing the GLP-1 Receptor was used. 200× concentration of compound working solutions were prepared (Agilent Technologies Bravo) with ½ log serial dilution in 384-well Echo LDV plate (Labcyte, Cat #LP-0200). 50 nL/well 200× concentration of compound working solutions were moved to 384-well white low volume plate (Greiner, Cat #784075) using Labcyte ECHO550. 1×10^5 cells/mL HEK293/GLPlR/CRE-LUC (HD Biosciences) cell suspensions prepared with assay buffer [DPBS containing 0.5 mM IBMX (Sigma, Cat #15879) and 0.1% BSA (GENVIEW, Cat #FA016-100g)], 10 μL cell suspensions were added to each well of previous generated assay plate which already contains 50 nL compound at 200× concentration using ThermoFisher Multidrop Combi (1000 cells/well). Seal the plate and incubate at 37° C. with 5% CO2 for 30 min.
# After incubation the cAMP assay signal was generated using cAMP dynamic 2 Kit (Cisbio). 5 μL cAMP-d2 working solution was added to each well, followed with 5 μL Anti-cAMP antibody-cryptate working solution added to each well using ThermoFisher Multidrop Combi. Incubate at room temperature for 1 hour protected from light. Read the fluorescence at 665 and 615 nm with Reader PerkinElmer EnVision.
# % Activity=100%×(mean RLU of test sample mean RLU of vehicle control)/(mean RLU of MAX control−mean RLU of vehicle control))
row,EC50,Structure (SMILES)
1,< 1 nM,N#CC1(Cc2cc(-c3nnc(C(F)(F)F)[nH]3)cnc2CN2CCC(c3ccc(F)c(OCc4ccc(Cl)cc4F)c3)CC2)CC1
2,< 1 nM,N#CC1(Cc2cc(-c3nnc(C(F)(F)F)[nH]3)cnc2CN2CCN(c3ccc(F)c(OCc4ccc(Cl)cc4F)n3)CC2)CC1
3,< 1 nM,"CC1(c2ccc(Cl)cc2F)Oc2cccc(C3=CCN(Cc4ncc(-c5nnc(C(F)(F)F)[nH]5)cc4CC4(C#N)CC4)CC3)c2O1 (stereo not shown) [Example 66, 1-((2-((4-(2-(4-chloro-2-fluorophenyl)-2-methylbenzo[d][1,3]dioxol-4-yl)-3,6-dihydropyridin-1(2H)-yl)methyl)-5-(5-(trifluoromethyl)-4H-1,2,4-triazol-3-yl)pyridin-3-yl)methyl)cyclopropane-1-carbonitrile]"

row,Structure (SMILES),EC50
1,C[C@H]1CN(c2cccc(OCc3ccc(Cl)cc3F)n2)CCN1Cc1ncc(-c2nnc(C(F)(F)F)[nH]2)cc1CC1(C#N)CC1,1 to 100 nM

# Reference: US20250145596A1, “HETEROCYCLIC GLP-1 AGONISTS” (Gasherbrum Bio, Inc., priority 2022, published 2025)
